For 2 molecules, LC-HRMS peak area results are on record in patent US20240344013A1, “METABOLOMIC ANALYSIS” (Genentech, Inc., priority 2021, published 2024).

The data set has as its system CHO cell fed-batch cultures. The data set can be described thus: LC-HRMS relative quantification (peak area) of metabolites in N-1 CHO cell culture. Set-up: species or system Chinese hamster.

With `O=C(O)C(O)Cc1ccc(O)cc1` (stereo not drawn) [4-Hydroxyphenyllactic acid, 4-hydroxyphenyllactic acid], the LC-HRMS peak area is 2.4E+05 (Day 2, N-1 stage); 1.3E+06 (Day 4, N-1 stage); 2.1E+06 (Day 7, N-1 stage).

`O=C(O)C(O)Cc1ccccc1` (stereo not drawn) [Phenyllactic acid, phenyllactic acid]: the LC-HRMS peak area is 3.9E+05 (Day 2, N-1 stage); 3.0E+06 (Day 4, N-1 stage); 5.1E+06 (Day 7, N-1 stage).
